Test in all cases: co-IP; chromatin replicating in Xenopus egg extract isolated in S-phase (unchallenged, or with aphidicolin and caffeine), complexes released with benzonase and sonication; antibodies (α-Cdc45, α-GINS, α-DONSON, α-TopBP1, α-Treslin) on Dynabeads, 4°C 1-2 h, washes in ANIB100; immunoblot
Assay [1] concerns the target T1, Xenopus laevis DONSON (Xenopus laevis (endogenous in egg extract)) (UniProt Q5U4U4).
T1 sequence: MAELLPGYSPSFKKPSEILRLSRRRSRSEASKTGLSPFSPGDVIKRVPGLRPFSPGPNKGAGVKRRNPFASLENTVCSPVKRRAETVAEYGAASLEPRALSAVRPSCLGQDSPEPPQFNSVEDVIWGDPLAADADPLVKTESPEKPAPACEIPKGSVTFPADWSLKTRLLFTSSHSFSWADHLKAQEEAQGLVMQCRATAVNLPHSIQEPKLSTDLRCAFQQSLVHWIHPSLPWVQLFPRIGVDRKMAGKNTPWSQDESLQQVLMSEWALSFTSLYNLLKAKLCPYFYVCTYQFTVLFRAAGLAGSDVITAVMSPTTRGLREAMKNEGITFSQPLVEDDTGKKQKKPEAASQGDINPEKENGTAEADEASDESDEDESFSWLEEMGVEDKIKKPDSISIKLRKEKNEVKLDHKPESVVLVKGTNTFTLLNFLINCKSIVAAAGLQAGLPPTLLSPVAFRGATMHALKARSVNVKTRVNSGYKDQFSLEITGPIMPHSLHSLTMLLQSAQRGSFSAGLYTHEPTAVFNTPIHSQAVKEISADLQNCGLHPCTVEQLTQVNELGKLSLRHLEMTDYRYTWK

Protein sequences, listed by entry. Tags and fused reporters are not part of them. Lines headed by an entry give the natural chain unless they say otherwise; changes in a name come on top.
UniProt D3IUT5: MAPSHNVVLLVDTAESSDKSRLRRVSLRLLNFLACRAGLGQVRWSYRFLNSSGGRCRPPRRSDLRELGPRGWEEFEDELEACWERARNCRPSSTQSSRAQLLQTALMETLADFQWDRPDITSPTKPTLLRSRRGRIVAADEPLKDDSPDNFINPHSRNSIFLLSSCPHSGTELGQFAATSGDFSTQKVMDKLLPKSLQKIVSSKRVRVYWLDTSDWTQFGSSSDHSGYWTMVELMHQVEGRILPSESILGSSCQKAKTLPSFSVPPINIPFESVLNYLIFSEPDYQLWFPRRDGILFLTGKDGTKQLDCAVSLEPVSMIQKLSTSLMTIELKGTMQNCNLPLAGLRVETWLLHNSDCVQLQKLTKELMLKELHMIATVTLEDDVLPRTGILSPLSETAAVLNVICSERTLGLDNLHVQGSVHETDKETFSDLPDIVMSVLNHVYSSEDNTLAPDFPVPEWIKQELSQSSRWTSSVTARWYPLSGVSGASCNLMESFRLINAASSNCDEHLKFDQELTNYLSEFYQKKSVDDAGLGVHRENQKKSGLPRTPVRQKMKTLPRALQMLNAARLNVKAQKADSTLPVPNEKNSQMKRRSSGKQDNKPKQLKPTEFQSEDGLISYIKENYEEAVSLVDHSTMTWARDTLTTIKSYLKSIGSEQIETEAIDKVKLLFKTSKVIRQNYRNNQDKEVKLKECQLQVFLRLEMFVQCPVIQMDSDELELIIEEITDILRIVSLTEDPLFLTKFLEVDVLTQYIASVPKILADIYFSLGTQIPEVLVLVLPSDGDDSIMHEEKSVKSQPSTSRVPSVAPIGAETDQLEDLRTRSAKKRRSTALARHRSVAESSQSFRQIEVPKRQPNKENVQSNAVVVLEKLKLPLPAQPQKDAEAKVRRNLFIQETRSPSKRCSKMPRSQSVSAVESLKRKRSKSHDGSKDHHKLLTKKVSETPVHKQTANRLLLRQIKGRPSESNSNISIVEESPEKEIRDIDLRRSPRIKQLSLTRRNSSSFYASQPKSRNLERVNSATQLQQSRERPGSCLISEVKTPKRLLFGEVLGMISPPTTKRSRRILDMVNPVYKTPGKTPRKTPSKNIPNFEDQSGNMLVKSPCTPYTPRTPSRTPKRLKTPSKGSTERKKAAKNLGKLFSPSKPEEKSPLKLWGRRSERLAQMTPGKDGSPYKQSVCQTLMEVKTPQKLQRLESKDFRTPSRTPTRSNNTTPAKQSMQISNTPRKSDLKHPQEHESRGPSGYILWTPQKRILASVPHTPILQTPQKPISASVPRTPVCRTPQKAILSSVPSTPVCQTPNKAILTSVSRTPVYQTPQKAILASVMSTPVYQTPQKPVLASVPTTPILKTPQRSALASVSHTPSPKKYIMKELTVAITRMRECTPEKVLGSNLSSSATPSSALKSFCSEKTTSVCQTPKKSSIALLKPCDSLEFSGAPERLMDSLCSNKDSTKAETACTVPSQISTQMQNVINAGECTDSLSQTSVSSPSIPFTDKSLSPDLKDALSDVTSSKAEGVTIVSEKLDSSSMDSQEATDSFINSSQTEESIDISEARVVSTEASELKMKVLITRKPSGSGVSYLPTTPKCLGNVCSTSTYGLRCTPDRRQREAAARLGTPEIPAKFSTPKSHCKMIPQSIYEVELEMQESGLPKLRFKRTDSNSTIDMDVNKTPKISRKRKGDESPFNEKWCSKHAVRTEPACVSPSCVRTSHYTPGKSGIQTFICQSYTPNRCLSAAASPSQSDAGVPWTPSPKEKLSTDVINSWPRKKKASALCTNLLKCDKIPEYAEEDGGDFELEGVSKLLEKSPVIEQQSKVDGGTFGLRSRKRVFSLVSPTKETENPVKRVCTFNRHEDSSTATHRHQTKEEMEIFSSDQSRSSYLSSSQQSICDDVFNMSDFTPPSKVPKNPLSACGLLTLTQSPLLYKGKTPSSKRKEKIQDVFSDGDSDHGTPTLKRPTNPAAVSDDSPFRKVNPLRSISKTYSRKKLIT
UniProt Q6NRW0: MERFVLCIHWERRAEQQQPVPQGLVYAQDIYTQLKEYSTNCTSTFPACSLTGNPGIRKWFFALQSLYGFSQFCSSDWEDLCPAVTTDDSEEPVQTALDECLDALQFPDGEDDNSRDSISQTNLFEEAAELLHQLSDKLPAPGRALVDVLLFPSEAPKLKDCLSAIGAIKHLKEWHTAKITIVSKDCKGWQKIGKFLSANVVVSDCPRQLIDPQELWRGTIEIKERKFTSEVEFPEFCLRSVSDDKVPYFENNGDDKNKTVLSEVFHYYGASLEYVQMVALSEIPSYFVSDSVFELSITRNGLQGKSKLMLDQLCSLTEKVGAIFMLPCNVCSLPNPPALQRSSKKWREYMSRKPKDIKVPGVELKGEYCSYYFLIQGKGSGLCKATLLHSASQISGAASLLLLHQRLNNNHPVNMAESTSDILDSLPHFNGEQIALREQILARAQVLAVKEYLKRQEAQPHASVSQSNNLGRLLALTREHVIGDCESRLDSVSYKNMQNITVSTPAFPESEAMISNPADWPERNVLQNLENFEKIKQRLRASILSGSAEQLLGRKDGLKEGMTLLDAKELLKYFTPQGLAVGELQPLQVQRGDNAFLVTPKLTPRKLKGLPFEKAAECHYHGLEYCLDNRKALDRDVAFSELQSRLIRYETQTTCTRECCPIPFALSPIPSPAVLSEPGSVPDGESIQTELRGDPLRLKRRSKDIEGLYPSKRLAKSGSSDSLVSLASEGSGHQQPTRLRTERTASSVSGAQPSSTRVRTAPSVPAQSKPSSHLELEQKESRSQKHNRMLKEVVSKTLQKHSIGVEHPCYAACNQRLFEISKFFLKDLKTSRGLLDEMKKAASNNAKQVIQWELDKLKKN

For assay [2], the target named is T2, Xenopus laevis DONSON (Xenopus laevis (endogenous in egg extract)), Q5U4U4.
T2 chain: T1 sequence
The note with it: remark: other sources report otherwise.

Assay [3] concerns the target Treslin/MTBP complex (Xenopus laevis (endogenous in egg extract)) (UniProt D3IUT5+Q6NRW0).
For assay [4], the target named is T3, Cdc45 (Xenopus laevis (endogenous in egg extract)), Q9YHZ6.
T3 chain: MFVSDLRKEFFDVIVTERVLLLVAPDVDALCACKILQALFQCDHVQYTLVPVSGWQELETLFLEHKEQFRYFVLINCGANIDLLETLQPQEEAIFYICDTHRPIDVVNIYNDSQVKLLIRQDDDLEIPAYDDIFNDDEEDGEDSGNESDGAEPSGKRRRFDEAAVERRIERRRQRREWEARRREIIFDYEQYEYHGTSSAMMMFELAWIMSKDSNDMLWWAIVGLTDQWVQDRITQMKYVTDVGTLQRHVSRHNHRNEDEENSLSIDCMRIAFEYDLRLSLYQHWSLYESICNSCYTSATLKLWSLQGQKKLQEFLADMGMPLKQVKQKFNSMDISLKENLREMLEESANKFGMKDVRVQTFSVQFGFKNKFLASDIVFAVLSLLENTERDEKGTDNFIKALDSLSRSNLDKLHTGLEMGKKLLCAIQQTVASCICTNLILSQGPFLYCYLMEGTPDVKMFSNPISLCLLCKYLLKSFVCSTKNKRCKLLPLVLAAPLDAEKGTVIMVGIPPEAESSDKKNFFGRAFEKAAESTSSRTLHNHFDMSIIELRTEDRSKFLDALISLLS
As to conditions: remark: other sources report otherwise.

These are yes or no findings as the source states them, for the method shown. In cells and extracts the contact can be indirect. Some binding calls cover weakened binding; strength is not graded here.

“Treslin/MTBP complex (from UniProt D3IUT5 1-1985; Q6NRW0 1-860)”: the binding result in assay [1] is “binds”.

B1: Cdc45, Q9YHZ6 1-567 (protein)
chain: T3 chain
B1: the binding entry in assay [2] is on record as “binds”.

B2: Xenopus laevis DONSON (protein, UniProt Q5U4U4 1-579)
chain: T1 sequence
Turning to B2, the binding entry in assay [3] is “binds”.

B3: Xenopus laevis DONSON, Q5U4U4 1-579 (protein)
chain: T1 sequence
With B3, the binding result in assay [4] is listed as “binds”.

These data come from article PMC10570026.
